Results from publication PMC9376389.
Results are given in words; binding and its absence hold for the method and conditions named. Binding seen in cells or lysates may run through a third protein. Some entries that bind do so weakly or less than the wild type.

Sequences of proteins named here, by UniProt entry; tags and fusion partners are left off.
UniProt P09528: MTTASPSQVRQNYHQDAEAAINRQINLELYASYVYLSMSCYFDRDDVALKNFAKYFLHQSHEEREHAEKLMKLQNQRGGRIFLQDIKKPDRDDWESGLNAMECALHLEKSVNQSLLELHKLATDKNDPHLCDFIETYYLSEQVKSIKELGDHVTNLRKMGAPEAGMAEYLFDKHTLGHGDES

Target: T1, nuclear receptor coactivator 4 (NCOA4) (mouse (endogenous in MLE-12)) (UniProt Q5U4H9)
T1 sequence: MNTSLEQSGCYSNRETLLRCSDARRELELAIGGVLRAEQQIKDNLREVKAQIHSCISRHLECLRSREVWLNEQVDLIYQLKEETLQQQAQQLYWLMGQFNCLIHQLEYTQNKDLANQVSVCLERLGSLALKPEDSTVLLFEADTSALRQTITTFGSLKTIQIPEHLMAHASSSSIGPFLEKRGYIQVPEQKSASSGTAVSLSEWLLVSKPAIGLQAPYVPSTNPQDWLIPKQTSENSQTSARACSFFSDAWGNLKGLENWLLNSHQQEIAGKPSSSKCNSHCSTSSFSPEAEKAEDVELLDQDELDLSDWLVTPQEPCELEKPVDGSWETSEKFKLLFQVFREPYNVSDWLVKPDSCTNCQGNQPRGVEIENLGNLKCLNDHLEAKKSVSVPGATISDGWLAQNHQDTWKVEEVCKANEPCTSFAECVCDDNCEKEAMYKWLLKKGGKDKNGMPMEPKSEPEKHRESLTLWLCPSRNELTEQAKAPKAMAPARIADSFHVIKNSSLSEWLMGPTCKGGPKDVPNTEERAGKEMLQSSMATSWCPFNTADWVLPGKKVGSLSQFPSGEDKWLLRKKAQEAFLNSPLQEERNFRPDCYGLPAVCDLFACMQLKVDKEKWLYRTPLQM
Assay: co-IP; MLE-12 cell lysate (50 mmol/L Tris-HCl, 150 mmol/L NaCl, 1% NP-40, 1 mmol/L EDTA) precleared with rabbit IgG and protein A/G agarose, immunoprecipitated with anti-NCOA4 for 24 h at 4°C, blotted for FTH1; cells with or without LPS and with scramble or YAP1 overexpression; IgG as control

## ferritin heavy chain 1 (FTH1) (from UniProt P09528 1-182)
  binding: binds
